Laboratory results: patent US10435388B2, “Selective inhibitors of clinically important mutants of the EGFR tyrosine kinase” (CS PHARMATECH LIMITED, priority 2016, dated 2019)

The chains behind the UniProt entries cited, without tags or fusion partners. Residues count along the entry.
UniProt P08069, 959-1367 limits assumed: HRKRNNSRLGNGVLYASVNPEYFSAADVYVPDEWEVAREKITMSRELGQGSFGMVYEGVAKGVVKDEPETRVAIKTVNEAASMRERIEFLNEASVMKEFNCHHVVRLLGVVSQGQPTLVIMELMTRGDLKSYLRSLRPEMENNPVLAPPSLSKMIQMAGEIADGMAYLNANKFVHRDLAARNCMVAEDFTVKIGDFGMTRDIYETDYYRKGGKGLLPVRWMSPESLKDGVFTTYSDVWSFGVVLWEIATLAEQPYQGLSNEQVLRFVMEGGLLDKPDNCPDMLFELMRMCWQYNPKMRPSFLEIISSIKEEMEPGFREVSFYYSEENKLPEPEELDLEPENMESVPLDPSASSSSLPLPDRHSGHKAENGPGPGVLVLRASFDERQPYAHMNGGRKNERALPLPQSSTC

Experiments:
[1] = test system: H1975 cells (DM); assay: H1975 inhibition assay (cell proliferation), Method B; assay type: cell-based; conditions: read-out: DM (H1975) IC50 nM, cellular proliferation, 72 h, several runs
[2] = test system: A431 cells (WT); assay: A431 inhibition assay (cell proliferation), Method B; conditions: read-out: WT (A431) IC50 nM, cellular proliferation, 72 h, several runs
[3] = test system: PC9 cells (SM); assay: PC-9 growth inhibition assay (cell proliferation), Method B; conditions: read-out: SM (PC9) IC50 nM, cellular proliferation, 72 h, several runs
[4] = target: IGF-1R (Homo sapiens, UniProt P08069); assay: IGF-1R inhibition assay (Caliper EZ Reader); conditions: read-out: IC50 (nM) IGF-1R; enzyme assay

`C=CC(=O)Nc1cc(Nc2nccc(-c3c[nH]c4ccccc34)n2)c(OC)cc1N(C)CCN(C)C` [AZD-5104] was tested, and the IC50 [1] was 3.76, 11.8, 3.66, 3.2, 5.6, 3.31, 3.28, 5.03, 9.95, 3.27, 1.77 nM, the IC50 [2] was 42, 199, 123, 47.8, 33.4, 80.6, 79.2, 62.5, 415, 48.7, 34.9 nM and the IC50 [3] was 5.31, 4.8, 2.25, 2.65, 2.61, 1.81, 3.8, 6.22, 3.65 nM. For the same molecule, the IC50 [4] was 35.8 nM and 75.7 nM.

Certain results were filed several times, with different values. Only these are listed. The source may hold further records. For some of these results: Values that stand side by side seem to repeat one measurement (runs, samples, wells or individuals). For some of these results: Results that share an entry appear to be repeats (runs, samples, wells or individuals); one of them may be the mean.
